Measurements reported in PubChem BioAssay AID686938 (Drosophila RNAi Screening Center, 2013)
Aim: 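Looking for CRAC channel components and the factors controlling them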 (primary screen). System: Drosophila S2R+ cells. Reagents: long dsRNA against Drosophila genes, about 0.25 µg dsRNA per well, roughly 10,000 cells. Duration: 5 days of knock-down before the calcium assay. Treatment: thapsigargin (SERCA pump blocker) to empty calcium stores; entry signal taken 4 min after adding it. Measured: 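Duplicate raw fluo-4 intensities per well from a plate reader, at rest and four minutes after thapsigargin emptied calcium stores; entry-to-rest ratio filled for only some wells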. Reading the numbers: calcium entry signal: higher = stronger calcium signal after store depletion; entry to resting ratio: higher = more calcium entry relative to resting level; resting calcium signal: higher = higher resting calcium signal. Active means: 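Called when the plate z-score of the entry-to-rest ratio, mean of duplicates, falls below −3; wells with low overall dye signal (Fmax z below −2) or more than five off-targets excluded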. Calls: active = strongly reduced calcium entry; inactive = no strong reduction.
In all, the deposit lists about 23,000 reagents; below is a random part of those that have a named target and a result. Over the whole deposit, 75 (0.33%) were called active. 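Raw plate signals without normalisation; calls rest on plate z-scores that were not deposited; ratio present for only 364 wells.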 The numbers tell different reagents against one gene apart. A plus sign joins genes that one reagent is predicted to hit. Not stated in the record: the dose of the treatment.

gene | reagent no. | calcium entry signal, replicate 1 (fluorescence units) | calcium entry signal, replicate 2 (fluorescence units) | entry to resting ratio | resting calcium signal, replicate 1 (fluorescence units) | resting calcium signal, replicate 2 (fluorescence units) | call
Gos28 | 1 | 4.15e7 | 3.67e7 | – | 4.88e7 | 1.70e7 | inactive
Gos28 | 2 | 2.13e7 | 2.72e7 | – | 1.07e7 | 1.26e7 | inactive
Spn42Da | 1 | 2.36e7 | 2.87e7 | – | 1.11e7 | 1.22e7 | inactive
TfIIEbeta | 1 | 2.38e7 | 1.95e7 | – | 1.49e7 | 1.13e7 | inactive
Cyp4e3 | 1 | 3.98e7 | 5.83e7 | – | 1.91e7 | 2.43e7 | inactive
CG4953 | 1 | 4.13e7 | – | – | 2.04e7 | – | inactive
Stim | 1 | 2.19e7 | 1.87e7 | – | 1.78e7 | 1.45e7 | active
CR18166 | 1 | 5.76e7 | 3.21e7 | – | 2.85e7 | 1.80e7 | inactive
CR18166 | 2 | 2.05e7 | 2.46e7 | 1.9 | 1.09e7 | 1.23e7 | inactive
CG10029 | 1 | 4.15e7 | 4.78e7 | – | 1.72e7 | 2.04e7 | inactive
CG5543 | 1 | 2.34e7 | – | – | 1.23e7 | – | inactive
Cdc7 | 1 | 4.01e7 | 2.78e7 | – | 1.79e7 | 1.36e7 | inactive
Cdc7 | 2 | 2.59e7 | 3.64e7 | – | 1.20e7 | 1.58e7 | inactive
Cdc7 | 3 | 1.86e7 | 2.20e7 | – | 1.02e7 | 1.18e7 | inactive
Fmr1 | 1 | 3.08e7 | 2.32e7 | – | 1.62e7 | 1.36e7 | inactive
ksr | 1 | 4.48e7 | 2.46e7 | – | 2.25e7 | 1.28e7 | inactive
lncRNA:CR30009 | 1 | 2.68e7 | 3.01e7 | – | 1.41e7 | 1.31e7 | inactive
CG6901 | 1 | 5.01e7 | 5.97e7 | – | 2.29e7 | 6.76e7 | inactive
Rai1 | 1 | 3.58e7 | 3.47e7 | – | 1.88e7 | 1.64e7 | inactive
CG11755 | 1 | 3.56e7 | 3.41e7 | – | 1.51e7 | 1.53e7 | inactive
Bcs1 | 1 | 3.76e7 | 3.96e7 | – | 1.69e7 | 1.69e7 | inactive
CG15263 | 1 | 3.75e7 | 2.25e7 | – | 1.88e7 | 1.27e7 | inactive
Ppox | 1 | 2.83e7 | 4.55e7 | – | 1.62e7 | 1.85e7 | inactive
Nuf2 | 1 | 3.63e7 | – | – | 1.97e7 | – | inactive
CG6870 | 1 | 4.82e7 | 3.35e7 | – | 2.10e7 | 1.53e7 | inactive
CG6435 | 1 | 2.86e7 | 2.98e7 | – | 1.21e7 | 1.45e7 | inactive
CG12998 | 1 | 3.75e7 | 3.06e7 | – | 1.87e7 | 1.39e7 | inactive
CG7329 | 1 | 4.71e7 | 5.72e7 | – | 2.35e7 | 2.52e7 | inactive
MICAL-like | 1 | 5.47e7 | 3.84e7 | – | 3.23e7 | 1.60e7 | inactive
CG15019 | 1 | 2.00e7 | 2.84e7 | – | 1.00e7 | 1.31e7 | inactive
Ate1 | 1 | 4.20e7 | 3.82e7 | – | 1.86e7 | 1.83e7 | inactive
CG30480 | 1 | 2.59e7 | 3.93e7 | – | 1.39e7 | 1.66e7 | inactive
for | 1 | 2.11e7 | 2.42e7 | – | 1.23e7 | 1.21e7 | inactive
for | 2 | 5.81e7 | – | – | 2.79e7 | – | inactive
Cep164 | 1 | 3.87e7 | 2.99e7 | – | 2.10e7 | 1.37e7 | inactive
Targ1 | 1 | 3.20e7 | 4.98e7 | – | 1.63e7 | 2.25e7 | inactive
exp | 1 | 3.57e7 | 3.62e7 | – | 2.29e7 | 2.40e7 | inactive
Mps1 | 1 | 3.75e7 | 4.04e7 | – | 1.74e7 | 1.71e7 | inactive
Mst85C | 1 | 4.59e7 | 4.46e7 | – | 1.91e7 | 2.10e7 | inactive
Hmx | 1 | 3.29e7 | 7.57e7 | – | 1.75e7 | 3.51e7 | inactive
Hmx | 2 | 4.09e7 | 5.03e7 | – | 1.95e7 | 7.56e7 | inactive
Hmx | 3 | 2.88e7 | 6.53e7 | – | 1.63e7 | 5.72e7 | inactive
Hmx | 4 | 3.33e7 | 5.06e7 | – | 1.60e7 | 2.27e7 | inactive
CG14000 + bchs | 1 | 3.75e7 | 3.25e7 | – | 1.92e7 | 1.62e7 | inactive
CG7330 | 1 | 3.73e7 | 5.13e7 | – | 1.78e7 | 1.93e7 | inactive
CG7330 | 2 | 3.33e7 | 5.87e7 | – | 1.73e7 | 1.98e7 | inactive
CG14229 | 1 | 4.39e7 | 4.24e7 | – | 2.09e7 | 1.66e7 | inactive
CG14229 | 2 | 3.70e7 | 2.76e7 | – | 2.15e7 | 1.22e7 | inactive
salr | 1 | 4.75e7 | 4.75e7 | – | 2.18e7 | 2.05e7 | inactive
EMC5 | 1 | 3.39e7 | 5.65e7 | – | 1.70e7 | 2.05e7 | inactive
CG5335 | 1 | 3.80e7 | 3.58e7 | – | 1.84e7 | 1.68e7 | inactive
atk | 1 | 3.60e7 | 4.13e7 | – | 1.85e7 | 1.82e7 | inactive
atk | 2 | 2.95e7 | 5.13e7 | – | 1.49e7 | 2.09e7 | inactive
Acp1 | 1 | 2.62e7 | 3.79e7 | – | 1.10e7 | 1.78e7 | inactive
CG6209 | 1 | 3.39e7 | 5.53e7 | – | 1.75e7 | 2.23e7 | inactive
sob | 1 | 3.22e7 | 3.91e7 | – | 1.58e7 | 1.90e7 | inactive
CycG | 1 | 3.13e7 | 4.22e7 | – | 1.51e7 | 2.08e7 | inactive
CycG | 2 | 2.82e7 | 3.78e7 | – | 1.72e7 | 1.68e7 | inactive

Reformatted: 3 of the entries above.
{"gene": "CG15263", "reagent no.": 1, "calcium entry signal, replicate 1 (fluorescence units)": 3.75e7, "calcium entry signal, replicate 2 (fluorescence units)": 2.25e7, "resting calcium signal, replicate 1 (fluorescence units)": 1.88e7, "resting calcium signal, replicate 2 (fluorescence units)": 1.27e7, "call": "inactive"}
{"gene": "Ppox", "reagent no.": 1, "calcium entry signal, replicate 1 (fluorescence units)": 2.83e7, "calcium entry signal, replicate 2 (fluorescence units)": 4.55e7, "resting calcium signal, replicate 1 (fluorescence units)": 1.62e7, "resting calcium signal, replicate 2 (fluorescence units)": 1.85e7, "call": "inactive"}
{"gene": "Nuf2", "reagent no.": 1, "calcium entry signal, replicate 1 (fluorescence units)": 3.63e7, "resting calcium signal, replicate 1 (fluorescence units)": 1.97e7, "call": "inactive"}
